The match of structure and compound is tentative.
Molecular target: MNK2 (Homo sapiens, UniProt Q9HBH9)
Assay: Mnk2a in vitro kinase assay (indirect fluorescence polarization)
Type: biochemical
Conditions: read-out: MNK2 IC50; pre-activated GST-Mnk2a 2.5 nM, 20 μM ATP, 30 μM substrate peptide
Experimental: Inhibitory potency of compounds against Mnk1, Mnk2a and other kinases was assessed with assays based on a format known to those skilled in the art as the indirect (competitive) fluorescence polarization. The assay detection system comprises a small fluorophore-labeled phospho-peptide (termed ligand) bound to a phospho-specific antibody. The product generated by the kinase reaction competes with the ligand for antibody binding. Based on the larger molecular volume of the bound ligand, which results in a lower rotation rate in solution, its emitted light has a higher degree of polarization than the one from the free ligand.
Example 2a. Mnk1 and Mnk2a in vitro kinase assay
As a source of enzyme, human Mnk1 and human Mnk2a were expressed as GST fusion proteins in E. coli, purified to >80% homogeneity by glutathione affinity chromatography and activated in vitro with pre-activated ERK2. In brief, the open reading frames of human Mnk1 and Mnk2a were amplified from cDNA using the forward/reverse primer pairs
(utilized restriction sites underlined), respectively, and cloned into the BamHI and SalI sites of the vector pGEX-4T1 (Amersham, Sweden, cat. no. 27-4580-01). These constructs allow prokaryotic expression of Mnk1 or Mnk2a as fusion protein with a N-terminal glutathione S-transferase (GST) tag, referred to as GST-Mnk1 or GSTMnk2a. […]

The chains behind the UniProt entries cited, without tags or fusion partners.
UniProt Q9HBH9, whole entry: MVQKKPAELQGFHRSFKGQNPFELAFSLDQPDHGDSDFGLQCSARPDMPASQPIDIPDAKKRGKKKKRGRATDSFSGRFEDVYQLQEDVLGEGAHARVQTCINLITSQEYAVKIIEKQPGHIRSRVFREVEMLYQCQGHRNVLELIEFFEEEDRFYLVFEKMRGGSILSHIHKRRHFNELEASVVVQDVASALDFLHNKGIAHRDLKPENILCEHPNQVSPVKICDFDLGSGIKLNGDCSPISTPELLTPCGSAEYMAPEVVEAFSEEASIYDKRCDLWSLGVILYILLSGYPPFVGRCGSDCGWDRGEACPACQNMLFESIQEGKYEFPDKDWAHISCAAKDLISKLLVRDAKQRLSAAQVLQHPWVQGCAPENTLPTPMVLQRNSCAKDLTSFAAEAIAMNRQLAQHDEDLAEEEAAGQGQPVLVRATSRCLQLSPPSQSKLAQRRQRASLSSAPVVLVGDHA

## Cc1c(C(N)=O)sc2ncnc(Nc3ccc(F)cc3O[C@H]3C[C@@H](O)[C@@H](O)C3)c12 (relative stereo)
  IC50: 12 nM

— US8754079B2, “Cycloalkyl containing thienopyrimidines for pharmaceutical compositions” (Boehringer Ingelheim International GmbH, priority 2010, dated 2014)
